No constants are given. Whether binding was seen depends on the method and setting. Binding seen in cells or lysates may run through a third protein. Some binding calls cover weakened binding; strength is not graded here.
What was measured:
[1] = target: N-terminal His- and Flag-tagged BZLF1 protein (RHF-BZLF1) (Epstein-Barr virus) (UniProt P03206); assay: pull-down
[2] = target: BZLF1 protein in lytic replication-induced 293/EBV cells (Epstein-Barr virus) (UniProt P03206); assay: co-IP; 293/EBV cells, lytic infection induced by transfection of BZLF1 protein expression plasmid; MG132 for 4 h before harvesting, harvested 48 h post-transfection; IP and IB with the indicated antibodies
[3] = target: BZLF1 protein in lytic infection-induced Tet-BZLF1/B95-8 cells (Epstein-Barr virus) (UniProt P03206); assay: co-IP
[4] = target: BZLF1 protein, wild type, epitope-tagged (Epstein-Barr virus) (UniProt P03206); assay: co-IP; lysates of 293T cells transiently expressing tagged proteins; immunoprecipitation and immunoblotting with the indicated antibodies; lysis buffer 50 mM Tris-HCl pH 7.6, 120 mM NaCl, 0.1% NP40, 1 mM EDTA; washed with NET-gel buffer

By UniProt entry, the sequences of proteins in these tests, tags left out.
UniProt P03206: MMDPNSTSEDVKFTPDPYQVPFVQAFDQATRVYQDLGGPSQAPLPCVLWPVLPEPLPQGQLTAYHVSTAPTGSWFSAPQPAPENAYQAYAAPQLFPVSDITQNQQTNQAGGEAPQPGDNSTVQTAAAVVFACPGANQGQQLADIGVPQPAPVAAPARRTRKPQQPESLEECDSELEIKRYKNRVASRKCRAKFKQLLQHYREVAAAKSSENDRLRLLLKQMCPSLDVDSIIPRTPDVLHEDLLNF
UniProt Q9UBF6: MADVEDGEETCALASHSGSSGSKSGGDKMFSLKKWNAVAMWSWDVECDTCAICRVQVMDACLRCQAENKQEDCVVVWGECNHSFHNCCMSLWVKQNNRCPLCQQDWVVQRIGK
UniProt Q93034: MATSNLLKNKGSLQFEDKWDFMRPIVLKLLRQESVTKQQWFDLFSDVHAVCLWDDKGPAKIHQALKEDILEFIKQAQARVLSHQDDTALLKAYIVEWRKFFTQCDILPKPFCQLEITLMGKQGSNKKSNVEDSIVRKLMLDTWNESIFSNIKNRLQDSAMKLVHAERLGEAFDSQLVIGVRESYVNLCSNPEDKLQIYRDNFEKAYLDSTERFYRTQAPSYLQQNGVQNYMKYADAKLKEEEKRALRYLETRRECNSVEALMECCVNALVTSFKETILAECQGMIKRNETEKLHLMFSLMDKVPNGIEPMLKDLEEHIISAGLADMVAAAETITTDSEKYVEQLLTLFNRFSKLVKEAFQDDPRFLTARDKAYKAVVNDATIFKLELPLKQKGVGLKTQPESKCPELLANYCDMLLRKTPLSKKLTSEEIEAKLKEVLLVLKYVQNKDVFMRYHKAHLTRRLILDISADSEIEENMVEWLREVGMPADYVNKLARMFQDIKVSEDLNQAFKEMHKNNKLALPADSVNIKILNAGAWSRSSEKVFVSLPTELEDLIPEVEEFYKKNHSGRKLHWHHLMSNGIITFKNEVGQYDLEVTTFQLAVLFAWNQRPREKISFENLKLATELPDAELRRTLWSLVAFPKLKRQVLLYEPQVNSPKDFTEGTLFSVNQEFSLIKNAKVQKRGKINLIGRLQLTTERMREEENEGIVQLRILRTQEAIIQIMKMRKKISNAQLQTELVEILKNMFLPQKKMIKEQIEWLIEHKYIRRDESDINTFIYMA
UniProt U3FS08: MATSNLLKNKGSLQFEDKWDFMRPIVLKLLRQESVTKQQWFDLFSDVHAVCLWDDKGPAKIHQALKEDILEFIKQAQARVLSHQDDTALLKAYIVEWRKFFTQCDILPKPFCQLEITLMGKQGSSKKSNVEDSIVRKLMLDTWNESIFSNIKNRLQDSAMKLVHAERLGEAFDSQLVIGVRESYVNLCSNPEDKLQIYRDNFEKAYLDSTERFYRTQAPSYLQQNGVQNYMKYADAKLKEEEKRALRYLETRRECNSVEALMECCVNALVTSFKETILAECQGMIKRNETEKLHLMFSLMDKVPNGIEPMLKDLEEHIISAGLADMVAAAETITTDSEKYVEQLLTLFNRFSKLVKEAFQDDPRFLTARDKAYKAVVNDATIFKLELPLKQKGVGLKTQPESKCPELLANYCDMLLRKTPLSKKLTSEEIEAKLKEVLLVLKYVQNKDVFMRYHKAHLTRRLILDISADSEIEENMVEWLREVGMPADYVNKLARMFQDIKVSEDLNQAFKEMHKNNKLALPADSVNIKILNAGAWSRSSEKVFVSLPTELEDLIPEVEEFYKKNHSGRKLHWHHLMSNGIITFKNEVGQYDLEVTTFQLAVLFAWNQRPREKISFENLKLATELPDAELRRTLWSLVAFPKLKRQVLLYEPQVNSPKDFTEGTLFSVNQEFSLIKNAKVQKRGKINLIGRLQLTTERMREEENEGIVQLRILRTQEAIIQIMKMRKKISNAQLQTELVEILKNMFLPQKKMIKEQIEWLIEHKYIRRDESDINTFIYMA
UniProt Q15370: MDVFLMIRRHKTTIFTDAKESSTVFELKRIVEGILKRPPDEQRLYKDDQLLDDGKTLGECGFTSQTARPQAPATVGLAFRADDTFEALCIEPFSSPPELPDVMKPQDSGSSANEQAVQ

Row | Substance | binding [1] | also measured
1 | 3×myc-Rbx2 (from UniProt Q9UBF6 1-113) | binds | –
2 | Cul5, endogenous in 293/EBV cells (from UniProt Q93034 1-780) | – | binding [2]: binds
3 | Cul5, endogenous in B95-8 cells (from UniProt U3FS08 1-780) | – | binding [3]: binds
4 | Cul5, epitope-tagged (from UniProt Q93034 1-780) | – | binding [4]: binds
5 | Elongin B (baculovirus) (from UniProt Q15370 1-118) | binds | –
6 | HA-Cul5 (from UniProt Q93034 1-780) | binds | –
